Laboratory results reported in article PMC5806685.

Sequences of proteins named here, by UniProt entry; tags and fusion partners are left off. A change or cut given only in a name is not applied to a line headed by its entry.
UniProt P11716: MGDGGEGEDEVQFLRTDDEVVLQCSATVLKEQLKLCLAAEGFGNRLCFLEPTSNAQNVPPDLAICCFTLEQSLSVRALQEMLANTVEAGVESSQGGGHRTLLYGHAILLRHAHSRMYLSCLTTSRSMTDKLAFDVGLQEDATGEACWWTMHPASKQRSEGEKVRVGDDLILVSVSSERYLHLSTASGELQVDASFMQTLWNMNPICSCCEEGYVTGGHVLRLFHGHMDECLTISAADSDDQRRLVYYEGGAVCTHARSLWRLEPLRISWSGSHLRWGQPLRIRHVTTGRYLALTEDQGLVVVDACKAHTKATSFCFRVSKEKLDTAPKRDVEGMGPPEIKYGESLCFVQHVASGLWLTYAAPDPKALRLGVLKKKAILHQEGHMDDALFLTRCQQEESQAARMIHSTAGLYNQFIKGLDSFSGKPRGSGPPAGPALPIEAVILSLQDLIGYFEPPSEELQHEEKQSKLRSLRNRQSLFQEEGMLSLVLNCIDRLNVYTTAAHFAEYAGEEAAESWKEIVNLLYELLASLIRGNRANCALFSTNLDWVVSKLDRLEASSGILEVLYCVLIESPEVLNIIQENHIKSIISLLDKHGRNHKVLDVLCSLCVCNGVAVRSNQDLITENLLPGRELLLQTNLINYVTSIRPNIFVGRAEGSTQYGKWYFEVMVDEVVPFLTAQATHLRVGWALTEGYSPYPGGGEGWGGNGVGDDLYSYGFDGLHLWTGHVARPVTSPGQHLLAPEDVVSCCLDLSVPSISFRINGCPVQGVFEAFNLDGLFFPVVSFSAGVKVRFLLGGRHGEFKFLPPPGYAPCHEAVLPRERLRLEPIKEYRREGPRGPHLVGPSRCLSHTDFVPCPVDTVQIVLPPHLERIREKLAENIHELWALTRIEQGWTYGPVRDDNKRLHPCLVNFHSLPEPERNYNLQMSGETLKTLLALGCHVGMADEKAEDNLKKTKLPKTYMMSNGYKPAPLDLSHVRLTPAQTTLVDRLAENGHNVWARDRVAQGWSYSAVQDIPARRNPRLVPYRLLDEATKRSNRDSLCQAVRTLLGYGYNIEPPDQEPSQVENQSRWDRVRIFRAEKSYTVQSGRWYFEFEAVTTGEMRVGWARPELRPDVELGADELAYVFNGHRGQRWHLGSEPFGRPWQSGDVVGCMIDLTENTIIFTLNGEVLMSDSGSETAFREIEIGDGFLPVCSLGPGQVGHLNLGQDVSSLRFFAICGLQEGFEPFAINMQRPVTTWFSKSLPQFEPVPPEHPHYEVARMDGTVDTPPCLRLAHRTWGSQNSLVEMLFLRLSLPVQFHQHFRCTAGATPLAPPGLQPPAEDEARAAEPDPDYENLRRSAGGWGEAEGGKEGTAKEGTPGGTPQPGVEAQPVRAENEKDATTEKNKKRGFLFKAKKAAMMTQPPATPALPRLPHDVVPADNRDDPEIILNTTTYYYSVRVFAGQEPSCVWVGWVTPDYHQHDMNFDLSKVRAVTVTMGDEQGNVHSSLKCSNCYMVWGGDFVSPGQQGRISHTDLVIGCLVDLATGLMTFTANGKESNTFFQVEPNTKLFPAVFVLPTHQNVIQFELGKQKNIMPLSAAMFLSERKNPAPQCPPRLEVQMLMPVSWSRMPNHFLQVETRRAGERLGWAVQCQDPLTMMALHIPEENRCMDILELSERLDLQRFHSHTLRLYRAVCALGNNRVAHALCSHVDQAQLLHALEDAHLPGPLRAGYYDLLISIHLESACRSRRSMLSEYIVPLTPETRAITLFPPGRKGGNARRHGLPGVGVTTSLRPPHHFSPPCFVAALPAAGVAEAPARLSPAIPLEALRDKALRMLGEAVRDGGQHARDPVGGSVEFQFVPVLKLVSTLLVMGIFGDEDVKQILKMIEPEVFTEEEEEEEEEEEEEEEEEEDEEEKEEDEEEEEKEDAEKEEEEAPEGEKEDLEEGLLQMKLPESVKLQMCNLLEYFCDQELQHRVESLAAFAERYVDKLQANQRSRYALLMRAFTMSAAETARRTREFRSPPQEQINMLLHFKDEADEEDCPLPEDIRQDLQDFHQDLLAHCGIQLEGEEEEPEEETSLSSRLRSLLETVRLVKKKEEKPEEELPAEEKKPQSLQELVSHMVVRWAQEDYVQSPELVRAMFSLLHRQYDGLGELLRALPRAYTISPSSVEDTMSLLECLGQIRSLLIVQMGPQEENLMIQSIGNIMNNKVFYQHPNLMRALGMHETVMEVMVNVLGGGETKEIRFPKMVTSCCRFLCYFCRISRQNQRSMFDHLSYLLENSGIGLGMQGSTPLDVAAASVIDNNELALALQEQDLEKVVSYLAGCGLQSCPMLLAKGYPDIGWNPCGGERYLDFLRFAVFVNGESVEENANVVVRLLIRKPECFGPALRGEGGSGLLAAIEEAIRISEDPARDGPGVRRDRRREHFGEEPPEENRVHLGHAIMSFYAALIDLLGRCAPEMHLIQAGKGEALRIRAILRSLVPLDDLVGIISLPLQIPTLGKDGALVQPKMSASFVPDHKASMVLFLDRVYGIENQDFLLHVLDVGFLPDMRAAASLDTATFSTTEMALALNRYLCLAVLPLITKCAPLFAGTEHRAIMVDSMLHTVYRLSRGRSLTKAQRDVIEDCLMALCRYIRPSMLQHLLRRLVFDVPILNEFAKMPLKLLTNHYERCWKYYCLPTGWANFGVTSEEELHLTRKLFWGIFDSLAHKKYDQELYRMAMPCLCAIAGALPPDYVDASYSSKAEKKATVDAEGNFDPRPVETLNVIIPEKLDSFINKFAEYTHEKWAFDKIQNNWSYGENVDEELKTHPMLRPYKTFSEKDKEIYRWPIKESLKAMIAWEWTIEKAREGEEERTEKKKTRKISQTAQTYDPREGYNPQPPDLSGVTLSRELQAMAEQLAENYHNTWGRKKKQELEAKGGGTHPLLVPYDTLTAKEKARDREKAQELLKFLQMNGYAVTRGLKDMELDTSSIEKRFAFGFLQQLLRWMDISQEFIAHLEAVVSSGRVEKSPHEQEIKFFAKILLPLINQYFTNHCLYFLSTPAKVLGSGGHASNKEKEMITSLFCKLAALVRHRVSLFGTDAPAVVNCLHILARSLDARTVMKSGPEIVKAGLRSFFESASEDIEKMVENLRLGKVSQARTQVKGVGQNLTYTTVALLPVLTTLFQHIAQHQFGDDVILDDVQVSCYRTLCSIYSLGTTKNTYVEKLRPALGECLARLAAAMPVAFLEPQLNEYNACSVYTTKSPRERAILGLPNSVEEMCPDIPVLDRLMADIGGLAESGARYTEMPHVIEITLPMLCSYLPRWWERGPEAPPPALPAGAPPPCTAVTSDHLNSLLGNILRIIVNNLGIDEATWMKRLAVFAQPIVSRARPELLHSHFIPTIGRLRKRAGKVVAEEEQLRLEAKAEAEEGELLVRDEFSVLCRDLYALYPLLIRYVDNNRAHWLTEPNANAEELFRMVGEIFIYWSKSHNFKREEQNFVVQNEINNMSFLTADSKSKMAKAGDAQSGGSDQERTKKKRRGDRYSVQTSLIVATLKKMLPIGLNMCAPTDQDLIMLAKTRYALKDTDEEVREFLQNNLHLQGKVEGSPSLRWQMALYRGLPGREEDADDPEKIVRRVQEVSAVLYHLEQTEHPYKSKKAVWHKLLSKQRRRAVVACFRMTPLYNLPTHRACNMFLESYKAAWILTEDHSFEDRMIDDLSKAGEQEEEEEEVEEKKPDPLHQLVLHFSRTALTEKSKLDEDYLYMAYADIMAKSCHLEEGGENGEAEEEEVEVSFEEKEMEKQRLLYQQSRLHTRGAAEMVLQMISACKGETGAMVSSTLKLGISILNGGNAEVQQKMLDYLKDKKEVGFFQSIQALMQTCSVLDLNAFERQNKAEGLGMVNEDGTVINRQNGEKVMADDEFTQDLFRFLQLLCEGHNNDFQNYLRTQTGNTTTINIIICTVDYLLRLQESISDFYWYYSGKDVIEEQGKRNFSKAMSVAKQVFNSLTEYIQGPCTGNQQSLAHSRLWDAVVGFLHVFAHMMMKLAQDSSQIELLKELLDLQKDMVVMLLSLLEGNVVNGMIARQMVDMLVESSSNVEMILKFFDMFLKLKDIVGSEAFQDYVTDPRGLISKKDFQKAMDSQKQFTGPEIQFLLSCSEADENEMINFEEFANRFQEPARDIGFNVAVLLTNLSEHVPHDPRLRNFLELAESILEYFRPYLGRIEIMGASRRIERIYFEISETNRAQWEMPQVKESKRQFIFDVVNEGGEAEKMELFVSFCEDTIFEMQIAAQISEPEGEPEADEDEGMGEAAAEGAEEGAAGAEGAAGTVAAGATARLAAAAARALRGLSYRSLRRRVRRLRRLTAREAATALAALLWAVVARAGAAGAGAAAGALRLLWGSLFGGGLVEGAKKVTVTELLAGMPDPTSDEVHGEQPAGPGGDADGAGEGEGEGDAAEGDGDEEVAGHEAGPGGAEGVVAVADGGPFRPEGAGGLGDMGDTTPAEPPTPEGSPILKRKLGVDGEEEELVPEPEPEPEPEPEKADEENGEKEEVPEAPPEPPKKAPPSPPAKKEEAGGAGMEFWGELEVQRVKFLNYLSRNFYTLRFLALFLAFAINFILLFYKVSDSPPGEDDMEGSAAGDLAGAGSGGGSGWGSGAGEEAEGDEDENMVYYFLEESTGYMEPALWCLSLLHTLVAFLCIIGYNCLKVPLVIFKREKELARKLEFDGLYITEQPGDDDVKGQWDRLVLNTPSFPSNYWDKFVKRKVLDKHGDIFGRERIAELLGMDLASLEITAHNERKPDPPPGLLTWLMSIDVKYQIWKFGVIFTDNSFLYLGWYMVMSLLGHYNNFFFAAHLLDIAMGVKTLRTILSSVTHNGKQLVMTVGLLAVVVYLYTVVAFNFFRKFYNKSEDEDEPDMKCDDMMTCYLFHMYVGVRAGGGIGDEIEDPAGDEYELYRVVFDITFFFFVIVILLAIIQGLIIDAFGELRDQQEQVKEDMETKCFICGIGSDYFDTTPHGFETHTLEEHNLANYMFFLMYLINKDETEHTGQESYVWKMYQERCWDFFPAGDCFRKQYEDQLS

Legend:
[1] = target: EYFP-RyR1_(1:4300) (N-terminal 4,300 residues of rabbit type 1 ryanodine receptor), expressed in tsA201 cells (rabbit) (UniProt P11716); assay: FRET or BRET
[2] = target: EYFP-RyR1_(1:4300) (N-terminal 4,300 residues of rabbit type 1 ryanodine receptor), expressed in tsA201 cells (rabbit) (UniProt P11716); assay: SEC

EYFP-RyR1_(1:4300) (N-terminal 4,300 residues of rabbit type 1 ryanodine receptor), expressed in tsA201 cells, P11716 1-4300
FRET efficiency [1]: 3.2
percent in complexes larger in size than the monomer [2]: 25%
